Results from patent publication US20100291108A1.
Results are given in words; binding and its absence hold for the method and conditions named. Some binding calls cover weakened binding; strength is not graded here.

The chains behind the UniProt entries cited, without tags or fusion partners. Where a name states a change or a piece, a line headed by the entry shows the natural chain unless it says otherwise.
UniProt Q8TDQ1: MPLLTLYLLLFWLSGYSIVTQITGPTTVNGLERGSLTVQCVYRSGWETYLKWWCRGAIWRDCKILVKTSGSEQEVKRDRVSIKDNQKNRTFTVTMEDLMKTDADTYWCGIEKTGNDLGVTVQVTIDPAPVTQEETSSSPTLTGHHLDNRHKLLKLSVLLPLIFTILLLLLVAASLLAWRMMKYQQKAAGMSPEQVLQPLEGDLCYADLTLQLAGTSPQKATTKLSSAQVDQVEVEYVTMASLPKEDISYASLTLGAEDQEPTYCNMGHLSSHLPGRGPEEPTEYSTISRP

Tests used:
[1] = target: human IREM-1 (full-length, on cells) (human) (UniProt Q8TDQ1); test: fluorescence microscopy of HEK293 cells stably expressing IREM-1, Alexa488-conjugated antibody bound on ice, then 37 C for 0, 30, 120 min (internalization)
[2] = target: human IREM-1 (full-length, on cells) (human) (UniProt Q8TDQ1); test: flow cytometry of leukemia cell lines (FAB stages M0 to M7, CML), given as receptor number per cell; FITC-labelled mAb 871.1 according to paragraph 400
[3] = target: human IREM-1 (full-length, on cells) (human) (UniProt Q8TDQ1); test: flow cytometry of normal human peripheral blood cell populations; FITC-labelled mAb 871.1 according to paragraph 400
[4] = target: human IREM-1 (full-length, on cells) (human) (UniProt Q8TDQ1); test: flow cytometry of AML patient blasts and CD34+/CD38- AML stem cells with an anti-IREM-1 antibody; FITC-labelled mAb 871.1 according to paragraph 400

binding [1]: binds
binding [2]: binds
binding [3]: binds
binding [4]: binds
B1: chimeric anti-IREM-1 monoclonal antibody 871.1 (antibody, human IgG1, V domains shown)
VH: EVKLVESGGGLVQPGGSLSLSCAASGFTFTDYYMSWVRQPPGMAPEWLGFIRNKANGYTTEYSASVKGRFTISRDDSQSILYLQMNALRAEDSATYYCAREDYGSSWGYYAMDCWGQGTSVTVSS
VL: DIVMTQSQKFMSTSVGDRVSVTCKASQNVDTNVAWYQQKPGQSPKALLYSASYRHSGVPDRFTGSGSETDFTLTITNVQSEDLAEYFCQQYNSFPLTFGSGTKLEIRR
